{"source": "paper PMC6427064", "binders": {"B1": {"name": "His-I72X barttin (N-terminal 72 residues of barttin preceded by a His-tag) (domain or fragment, UniProt Q8WZ55 1-72)", "chain": "MADEKTFRIGFIVLGLFLLALGTFLMSHDRPQVYGTFYAMGSVMVIGGIIWSMCQCYPKITFVPADSDFQGI"}}, "key": {"[1]": {"biological_target": "His-I72X barttin (N-terminal 72 residues of barttin preceded by a His-tag) (UniProt Q8WZ55)", "assay": "relative SDS-PAGE band intensities of MSP and barttin; barttin in MSP1D1 (D1) DMPC nanodiscs, after IMAC purification to remove empty nanodiscs; Coomassie-stained tricine SDS-PAGE; copies of barttin per nanodisc estimated; both purified"}, "[2]": {"biological_target": "His-I72X barttin (N-terminal 72 residues of barttin preceded by a His-tag) (UniProt Q8WZ55)", "assay": "relative SDS-PAGE band intensities of MSP and barttin; barttin in MSP1D1ΔH5 (Δ5) nanodiscs, DMPC or native-like lipid mix, dialysis or on-column biobeads; purified via IMAC, before SEC; Coomassie-stained SDS-PAGE; both purified"}}, "note": "These are yes or no findings as the source states them, for the method shown. Where a sequence is shown, tags or fusion partners need not be part of it.", "data": [{"binder": "B1", "values": [{"measurement": "binding", "setting": "[1]", "result": "no binding"}, {"measurement": "binding", "setting": "[2]", "result": "no binding"}]}]}
